Assay results: the supplement of paper PMC12819154, “High-throughput peptide-centric local stability assay extends protein–ligand identification to membrane proteins, tissues and bacteria” (Nature Structural & Molecular Biology, 2025)
Some of the results follow. Most values lie at the level of the controls, where differences are scatter.

The chains behind the UniProt entries cited, without tags or fusion partners. Where a name states a change or a piece, a line headed by the entry shows the natural chain unless it says otherwise.
UniProt P22599: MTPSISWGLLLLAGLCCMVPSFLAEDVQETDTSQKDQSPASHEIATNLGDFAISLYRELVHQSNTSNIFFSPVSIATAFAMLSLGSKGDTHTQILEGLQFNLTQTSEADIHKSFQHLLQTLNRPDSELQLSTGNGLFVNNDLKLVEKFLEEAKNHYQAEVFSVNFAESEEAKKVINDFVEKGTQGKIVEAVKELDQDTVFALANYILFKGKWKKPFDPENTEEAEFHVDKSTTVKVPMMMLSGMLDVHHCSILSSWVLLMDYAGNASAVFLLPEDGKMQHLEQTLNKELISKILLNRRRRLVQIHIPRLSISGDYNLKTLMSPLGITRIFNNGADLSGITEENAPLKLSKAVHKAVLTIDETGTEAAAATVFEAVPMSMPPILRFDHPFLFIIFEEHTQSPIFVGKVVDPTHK
UniProt P31230: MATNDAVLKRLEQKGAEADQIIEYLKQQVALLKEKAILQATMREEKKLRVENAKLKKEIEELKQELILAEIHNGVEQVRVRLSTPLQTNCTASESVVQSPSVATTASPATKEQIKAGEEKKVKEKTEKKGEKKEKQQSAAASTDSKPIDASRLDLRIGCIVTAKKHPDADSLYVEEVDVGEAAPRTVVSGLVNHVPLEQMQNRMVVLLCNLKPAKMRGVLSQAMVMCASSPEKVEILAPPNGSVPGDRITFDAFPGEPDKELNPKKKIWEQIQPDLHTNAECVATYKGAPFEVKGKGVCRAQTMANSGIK
UniProt P28571: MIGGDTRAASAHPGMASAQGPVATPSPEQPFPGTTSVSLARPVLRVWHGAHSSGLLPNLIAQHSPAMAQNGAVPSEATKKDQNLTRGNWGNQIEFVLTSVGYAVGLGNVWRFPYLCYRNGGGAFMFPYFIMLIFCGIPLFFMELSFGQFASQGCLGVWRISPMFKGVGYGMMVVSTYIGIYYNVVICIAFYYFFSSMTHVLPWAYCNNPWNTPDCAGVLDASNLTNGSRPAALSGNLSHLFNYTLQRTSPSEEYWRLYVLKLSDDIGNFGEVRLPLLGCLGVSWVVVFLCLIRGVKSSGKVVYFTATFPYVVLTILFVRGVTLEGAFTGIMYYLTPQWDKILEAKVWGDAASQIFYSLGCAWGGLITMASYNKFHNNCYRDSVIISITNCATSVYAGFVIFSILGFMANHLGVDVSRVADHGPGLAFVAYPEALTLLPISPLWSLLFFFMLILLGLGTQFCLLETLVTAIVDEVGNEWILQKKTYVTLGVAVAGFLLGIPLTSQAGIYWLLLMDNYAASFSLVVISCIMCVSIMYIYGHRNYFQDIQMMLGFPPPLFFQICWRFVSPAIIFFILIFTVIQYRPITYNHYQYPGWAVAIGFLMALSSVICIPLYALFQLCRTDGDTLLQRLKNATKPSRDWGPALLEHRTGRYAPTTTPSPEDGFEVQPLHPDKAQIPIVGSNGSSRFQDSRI
UniProt P30285: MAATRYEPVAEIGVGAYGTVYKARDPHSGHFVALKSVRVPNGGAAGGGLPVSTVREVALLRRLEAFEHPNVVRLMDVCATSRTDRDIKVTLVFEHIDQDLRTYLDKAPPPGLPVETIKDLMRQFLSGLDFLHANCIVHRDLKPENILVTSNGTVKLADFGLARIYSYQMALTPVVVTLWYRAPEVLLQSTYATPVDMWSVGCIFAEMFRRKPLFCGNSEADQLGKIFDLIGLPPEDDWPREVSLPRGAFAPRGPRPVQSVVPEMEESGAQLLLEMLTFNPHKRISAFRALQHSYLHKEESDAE
UniProt P29758: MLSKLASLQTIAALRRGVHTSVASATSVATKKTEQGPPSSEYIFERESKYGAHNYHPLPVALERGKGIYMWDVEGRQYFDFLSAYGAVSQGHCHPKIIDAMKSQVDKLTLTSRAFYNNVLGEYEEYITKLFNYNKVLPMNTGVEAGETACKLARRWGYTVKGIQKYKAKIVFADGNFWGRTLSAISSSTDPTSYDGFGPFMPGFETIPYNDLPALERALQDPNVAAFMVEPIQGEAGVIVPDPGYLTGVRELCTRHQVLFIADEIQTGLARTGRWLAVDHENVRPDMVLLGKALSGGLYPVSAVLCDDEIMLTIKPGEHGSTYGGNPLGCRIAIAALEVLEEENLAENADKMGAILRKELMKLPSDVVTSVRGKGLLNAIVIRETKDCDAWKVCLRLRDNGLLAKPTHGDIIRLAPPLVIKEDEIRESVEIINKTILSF
UniProt P16015: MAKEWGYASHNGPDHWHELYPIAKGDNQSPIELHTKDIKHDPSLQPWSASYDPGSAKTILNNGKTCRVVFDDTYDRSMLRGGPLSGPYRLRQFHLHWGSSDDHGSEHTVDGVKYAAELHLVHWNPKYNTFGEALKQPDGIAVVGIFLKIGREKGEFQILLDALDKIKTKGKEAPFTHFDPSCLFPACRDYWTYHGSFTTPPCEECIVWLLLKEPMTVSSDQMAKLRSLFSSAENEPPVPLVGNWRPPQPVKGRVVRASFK

These targets were tested with CN[C@@H]1C[C@H]2O[C@@](C)([C@@H]1OC)n1c3ccccc3c3c4c(c5c6ccccc6n2c5c31)C(=O)NC4 [staurosporine] (assay: log2 fold change of tryptic peptide abundance, ligand vs vehicle (limited proteolysis) (log2 ratio); higher = more trypsin-susceptible (destabilized)). Details: ligand concentration: 20 uM; sample: mouse liver crude lysate; replicate design: treated separately.
With “UniProt P22599 (peptide sequence: MQHLEQTLNK, peptide start residue: 278)” the log2 fold change was 0.141. For “UniProt P31230 (peptide sequence: MVVLLCNLKPAK, peptide start residue: 204)”, the log2 fold change was 0.293. “UniProt P28571 (peptide sequence: DWGPALLEHR, peptide start residue: 639)” was tested, and the log2 fold change was 0.257. “UniProt P30285 (peptide sequence: VTLVFEHIDQDLR, peptide start residue: 89)” showed a log2 fold change of 0.387. For “UniProt P29758 (peptide sequence: GLLNAIVIR, peptide start residue: 375)”, the log2 fold change was -0.214. In the case of “UniProt P16015 (peptide sequence: EPMTVSSDQMAK, peptide start residue: 213)”, the log2 fold change is reported as 0.484.
